Measurements reported in patent publication US20100092465A1, “TREATMENT OF GRAFT-VERSUS-HOST DISEASE” (priority 2006, published 2010).
For part of these data: The name of at least one read-out is uncertain. For part of these data: At least one compound was matched to its structure with a doubt left.

Experiments:
[1] = test system: acute graft-vs-host disease; experiment: Mouse model of acute graft-vs-host disease; type: in vivo; conditions: proteins 100 µl of 1 mg/ml IP every other day, day -1 to 15; DEX daily days 0-6; day 18
Method: Efficacy of IL-27 antagonists was assayed in a mouse model of acute graft-vs-host disease (Durie et al., J. Clin. Invest. 94:1333-1338, 1994). Parental mice (C57BL/6; n=12) were euthanized, and their spleens were collected. The pooled spleens were smashed using two glass slides to dissociate splenic cells. Lysis buffer was added to the splenocyte suspension to remove red blood cells. The cells were washed in RPMI 1640 (10% FBS) medium and resuspended in an appropriate amount of PBS to make a cell concentration of 300 million cells/ml. Protein treatments were administered by intraperitoneal injection every other day beginning on day-1 and continuing until day 15. Dexamethasone (DEX) was administered by injection daily on days 0 through 6. On day 0, 75 million donor splenic lymphocytes from B6 mice (250 .micro.l per injection) were injected intravenously into recipient mice (C57BL/6×DBA/2 F1 (BDF1); n=10 per group) mice. Mice were monitored 3 times a week for changes in body weight and any signs of moribundity. Mice that lost >20% of their initial body weight were euthanized. Otherwise, mice were sacrificed 18 days after the cell transfer. Spleens were collected, and a CTL-specific lysis assay using P815 cells was performed as a quantitative measurement of acute GVHD. […]

[2] = Pharmacokinetics of soluble receptors in female C57B1/6 mice; type: in vivo, mouse; conditions: 100 μg
Method: Studies were performed to evaluate the pharmacokinetics of the mouse (IL-27RAm(mFc1)) and human (IL-27RA-Fc5) soluble receptors in female C57B1/6 mice.
Serum was generated from each sample and analyzed by a qualified enzyme-linked immunosorbant assay (ELISA). The resulting mean serum concentration versus time profiles were then subjected to noncompartmental pharmacokinetic analyses. The following pharmacokinetic parameters were calculated: C0 and Cmax (extrapolated concentration at time zero and maximum serum concentration, respectively), Tmax (time to achieve maximum concentration), t1/2 λz (terminal half-life), AUC0-t (area under the concentration versus time curve from time zero to the last measurable time point), AUCINF (area under the concentration versus time curve extrapolated to infinity), Cl or Cl/F (clearance or clearance divided by bioavailable fraction, respectively), VSS or VZ/F (steady state volume of distribution or volume of distribution divided by the bioavailable fraction, respectively), and F (bioavailable fraction).

Molecule | maintenance of host spleen cells, CD4+ T cells, and Treg cells [1] | Vz/F ([2]; IP) | Vz/F ([2]; SC)
C[C@@H]1C[C@H]2[C@@H]3CCC4=CC(=O)C=C[C@]4(C)[C@@]3(F)[C@@H](O)C[C@]2(C)[C@@]1(O)C(=O)CO [dexamethasone, reference compound] | did not maintain host spleen cells, CD4+ T cells, or Treg cells |  | 
human IL-27RA-Fc5: human IL27RA extracellular domain (amino acids 1 to 512 of SEQ ID NO:5) fused to Fc5, effector minus human gamma1 Fc; SEQ ID NO:3 |  | 2.96 mL | 3.50 mL
